This experiment deals with Mycoplasma pneumoniae. As to the kind of experiment: Expected efficacy of antibiotic agents. The format is cell-based. The conditions noted are these: Gram: n/a.

Molecules are shown by their SMILES.

Take `O=C(O)c1cn(C2CC2)c2cc(N3CCNCC3)c(F)cc2c1=O` [Ciprofloxacin]: the “efficacy against Mycoplasma pneumoniae” value is given as “yes”.

Source of the values: patent US9707229B2, “Compositions and methods for treating an infection” (CMPD LICENSING, LLC, priority 2015, dated 2017).
